Measurements: PMC10156737
Results are given in words; binding and its absence hold for the method and conditions named. Binding seen in cells or lysates may run through a third protein. Some binding calls cover weakened binding; strength is not graded here.

Sequences of proteins named here, by UniProt entry; tags and fusion partners are left off. A change or cut given only in a name is not applied to a line headed by its entry. A line that says so, or that is headed by a name, gives the form on record, which may keep a tag or linker. Residues count along the entry.
complement component C8 alpha chain, GFP-tagged (C8A-GFP) (P07357, residues 31-584): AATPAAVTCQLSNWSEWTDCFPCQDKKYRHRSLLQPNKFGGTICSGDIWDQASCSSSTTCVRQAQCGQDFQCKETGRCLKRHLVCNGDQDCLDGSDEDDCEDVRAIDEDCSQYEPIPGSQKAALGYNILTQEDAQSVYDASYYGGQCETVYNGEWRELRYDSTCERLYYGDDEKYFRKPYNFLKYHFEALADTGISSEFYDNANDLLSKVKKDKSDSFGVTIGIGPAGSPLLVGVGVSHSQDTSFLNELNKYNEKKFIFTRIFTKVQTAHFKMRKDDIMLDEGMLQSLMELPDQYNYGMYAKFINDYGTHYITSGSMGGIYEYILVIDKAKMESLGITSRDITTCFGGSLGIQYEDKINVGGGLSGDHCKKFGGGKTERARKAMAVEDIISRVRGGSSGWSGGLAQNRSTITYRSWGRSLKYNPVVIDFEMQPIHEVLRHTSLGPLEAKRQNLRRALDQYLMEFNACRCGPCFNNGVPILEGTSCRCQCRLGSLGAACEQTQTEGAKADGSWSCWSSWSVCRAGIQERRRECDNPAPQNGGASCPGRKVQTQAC
complement component C8 alpha chain variant R444H, GFP-tagged (C8A-Variant-GFP) (P07357, form named): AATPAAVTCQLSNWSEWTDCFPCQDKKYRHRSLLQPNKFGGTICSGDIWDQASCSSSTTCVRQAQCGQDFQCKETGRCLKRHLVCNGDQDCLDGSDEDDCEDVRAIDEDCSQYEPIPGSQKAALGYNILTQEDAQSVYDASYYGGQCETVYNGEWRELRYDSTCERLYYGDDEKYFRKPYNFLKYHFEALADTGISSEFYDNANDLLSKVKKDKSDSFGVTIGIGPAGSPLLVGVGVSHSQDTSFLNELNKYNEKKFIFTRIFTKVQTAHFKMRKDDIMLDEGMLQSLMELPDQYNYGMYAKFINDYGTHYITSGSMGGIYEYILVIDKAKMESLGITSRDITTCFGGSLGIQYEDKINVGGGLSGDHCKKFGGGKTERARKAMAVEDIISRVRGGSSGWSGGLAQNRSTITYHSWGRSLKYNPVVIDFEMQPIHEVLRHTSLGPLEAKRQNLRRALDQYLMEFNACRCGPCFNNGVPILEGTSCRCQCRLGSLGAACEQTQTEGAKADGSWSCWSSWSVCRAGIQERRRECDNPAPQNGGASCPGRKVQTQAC
complement component C8 beta chain, GFP-tagged (C8B-GFP) (P07358, residues 55-591): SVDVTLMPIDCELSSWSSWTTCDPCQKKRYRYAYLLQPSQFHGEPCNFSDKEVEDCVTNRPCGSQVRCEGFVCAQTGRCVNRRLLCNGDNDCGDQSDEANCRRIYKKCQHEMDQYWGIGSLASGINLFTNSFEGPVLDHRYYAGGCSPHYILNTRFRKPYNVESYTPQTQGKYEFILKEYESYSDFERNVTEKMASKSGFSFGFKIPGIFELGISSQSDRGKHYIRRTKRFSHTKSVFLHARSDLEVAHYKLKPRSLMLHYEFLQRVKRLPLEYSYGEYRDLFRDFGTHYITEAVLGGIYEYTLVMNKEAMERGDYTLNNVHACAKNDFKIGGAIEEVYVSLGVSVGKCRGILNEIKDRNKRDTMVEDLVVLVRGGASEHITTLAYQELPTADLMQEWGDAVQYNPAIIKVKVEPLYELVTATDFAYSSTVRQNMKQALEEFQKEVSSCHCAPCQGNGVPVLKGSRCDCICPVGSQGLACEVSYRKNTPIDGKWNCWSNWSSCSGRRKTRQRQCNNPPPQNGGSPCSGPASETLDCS
complement component C8 beta chain variant D382Y, GFP-tagged (C8B-Variant-GFP) (P07358, form named): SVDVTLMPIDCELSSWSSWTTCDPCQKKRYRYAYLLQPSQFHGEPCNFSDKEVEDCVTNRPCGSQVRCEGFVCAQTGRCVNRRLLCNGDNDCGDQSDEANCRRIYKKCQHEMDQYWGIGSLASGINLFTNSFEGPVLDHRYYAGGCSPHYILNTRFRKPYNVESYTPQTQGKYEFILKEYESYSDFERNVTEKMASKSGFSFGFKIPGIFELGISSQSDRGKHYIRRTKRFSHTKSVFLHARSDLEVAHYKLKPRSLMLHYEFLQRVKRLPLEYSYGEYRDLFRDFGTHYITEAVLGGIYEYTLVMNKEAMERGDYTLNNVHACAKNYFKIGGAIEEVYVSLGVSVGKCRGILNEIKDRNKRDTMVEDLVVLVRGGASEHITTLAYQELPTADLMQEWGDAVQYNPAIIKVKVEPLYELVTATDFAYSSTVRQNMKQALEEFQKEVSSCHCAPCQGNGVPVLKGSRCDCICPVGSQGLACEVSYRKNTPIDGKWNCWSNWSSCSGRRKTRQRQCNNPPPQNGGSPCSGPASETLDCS
UniProt P07360, residues 21-202: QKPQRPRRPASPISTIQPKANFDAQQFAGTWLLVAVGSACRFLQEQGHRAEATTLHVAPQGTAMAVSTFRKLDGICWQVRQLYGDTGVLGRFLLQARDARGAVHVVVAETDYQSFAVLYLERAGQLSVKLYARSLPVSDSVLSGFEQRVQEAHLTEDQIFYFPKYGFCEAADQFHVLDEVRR

What was measured:
Assay in all cases: co-IP; lysates (450 ug protein, Pierce IP Lysis Buffer) of HEK293 cells co-transfected with all three C8 subunits (wild type, or with the C8A or the C8B variant); 1 ug rabbit monoclonal anti-C8A or anti-C8B, 4°C overnight; Dynabeads Protein A; washed with PBS pH 7.4, 0.02% Tween 20; western blot for C8A, C8B and C8G; rabbit IgG as negative control
[1] = molecular target: complement component C8 alpha chain, GFP-tagged (C8A-GFP) (human) (UniProt P07357)
[2] = molecular target: complement component C8 alpha chain variant R444H, GFP-tagged (C8A-Variant-GFP) (human) (UniProt P07357)
[3] = molecular target: complement component C8 beta chain variant D382Y, GFP-tagged (C8B-Variant-GFP) (human) (UniProt P07358)
[4] = molecular target: complement component C8 beta chain, GFP-tagged (C8B-GFP) (human) (UniProt P07358)

Row | binding [1] | binding [2] | binding [3] | binding [4] | Substance
1 | binds | – | – | – | complement component C8 beta chain variant D382Y, GFP-tagged (C8B-Variant-GFP) (from UniProt P07358 55-591)
2 | binds | binds | – | – | complement component C8 beta chain, GFP-tagged (C8B-GFP) (from UniProt P07358 55-591)
3 | binds | binds | binds | binds | complement component C8 gamma chain, DDK (FLAG)-tagged (C8G-FLAG) (from UniProt P07360 21-202)
